{"source": "PubChem BioAssay AID1224828 (NIAID, 2016)", "aim": "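Find genes required for NF-kappaB p65 moving into the nucleus after LPS in mouse macrophages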 (primary screen)", "system": "mouse RAW264.7 G9 macrophage reporter cells (GFP-p65, Tnf promoter-mCherry)", "reagent": "siRNA pool against mouse genes, 100 nM", "duration": "2 days siRNA transfection, then 40 min LPS before fixation", "conditions": "LPS (Salmonella minnesota R595) at 10 ng/ml", "detection": "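Imaged p65 nuclear translocation ratio, normalised to the plate median, converted to robust z-scores and averaged across two replicates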", "scale": "p65 translocation robust z-score: higher = more nuclear NF-kappaB p65 after LPS than the plate median; nuclear/cytoplasmic p65 ratio: higher = more nuclear NF-kappaB p65", "hit rule": "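Called active when z exceeds 3.3 or falls under -1.56 (median of Tlr4 controls), giving activity score of at least 50; no calls for control wells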", "calls": "active = hit (p65 shift raised or lowered); inactive = no clear change", "note": "In all, the deposit lists about 17,000 reagents; below is an unselected part. 762 of them (4.5%) were called active. 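Active calls include both raised and lowered p65 entry, mostly lowered; wells with fewer than 50 cells lack a z-score.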 Raw values are not corrected between plates. Reagents against one gene are numbered here. Some reagents were tested in more than one well and are listed for each. Reagent sequences are not shown."}
{"gene": "Rpp25l (ribonuclease P/MRP 25 subunit-like)", "reagent no.": 1, "nuclear/cytoplasmic p65 ratio, rep 1": 1.3, "nuclear/cytoplasmic p65 ratio, rep 2": 2.28, "low cell count flag": "fewer than 50 cells per well; well left out of scoring", "outcome": "inactive"}
{"gene": "Irf2 (interferon regulatory factor 2)", "reagent no.": 1, "p65 translocation robust z-score": -1.25, "nuclear/cytoplasmic p65 ratio, rep 1": 1.24, "nuclear/cytoplasmic p65 ratio, rep 2": 1.28, "low cell count flag": "enough cells to score", "outcome": "inactive"}
{"gene": "Tex15 (testis expressed gene 15 meiosis and synapsis associated)", "reagent no.": 1, "p65 translocation robust z-score": 0.6, "nuclear/cytoplasmic p65 ratio, rep 1": 1.46, "nuclear/cytoplasmic p65 ratio, rep 2": 1.24, "low cell count flag": "enough cells to score", "outcome": "inactive"}
{"gene": "Sebox (SEBOX homeobox)", "reagent no.": 1, "p65 translocation robust z-score": 1.18, "nuclear/cytoplasmic p65 ratio, rep 1": 1.96, "nuclear/cytoplasmic p65 ratio, rep 2": 1.64, "low cell count flag": "enough cells to score", "outcome": "inactive"}
{"gene": "Gk5 (glycerol kinase 5)", "reagent no.": 1, "nuclear/cytoplasmic p65 ratio, rep 1": 1.04, "nuclear/cytoplasmic p65 ratio, rep 2": 0, "low cell count flag": "fewer than 50 cells per well; well left out of scoring", "outcome": "inactive"}
{"gene": "Arid5a (AT-rich interaction domain 5A)", "reagent no.": 1, "p65 translocation robust z-score": -0.41, "nuclear/cytoplasmic p65 ratio, rep 1": 1.48, "nuclear/cytoplasmic p65 ratio, rep 2": 1.52, "low cell count flag": "enough cells to score", "outcome": "inactive"}
{"gene": "Myo7b (myosin VIIB)", "reagent no.": 1, "p65 translocation robust z-score": -0.85, "nuclear/cytoplasmic p65 ratio, rep 1": 1.61, "nuclear/cytoplasmic p65 ratio, rep 2": 1.5, "low cell count flag": "enough cells to score", "outcome": "inactive"}
{"gene": "Wdtc1 (WD and tetratricopeptide repeats 1)", "reagent no.": 1, "p65 translocation robust z-score": -1.68, "nuclear/cytoplasmic p65 ratio, rep 1": 1.48, "nuclear/cytoplasmic p65 ratio, rep 2": 1.32, "low cell count flag": "enough cells to score", "outcome": "active"}
{"gene": "Krtap13 (keratin associated protein 13)", "reagent no.": 1, "p65 translocation robust z-score": -1.09, "nuclear/cytoplasmic p65 ratio, rep 1": 1.41, "nuclear/cytoplasmic p65 ratio, rep 2": 1.27, "low cell count flag": "enough cells to score", "outcome": "inactive"}
{"gene": "Slc26a3", "reagent no.": 1, "p65 translocation robust z-score": 0.93, "nuclear/cytoplasmic p65 ratio, rep 1": 1.63, "nuclear/cytoplasmic p65 ratio, rep 2": 1.67, "low cell count flag": "enough cells to score", "outcome": "inactive"}
{"gene": "Scgb2b24 (secretoglobin, family 2B, member 24)", "reagent no.": 1, "p65 translocation robust z-score": 1.12, "nuclear/cytoplasmic p65 ratio, rep 1": 1.68, "nuclear/cytoplasmic p65 ratio, rep 2": 1.58, "low cell count flag": "enough cells to score", "outcome": "inactive"}
{"gene": "Atf3 (activating transcription factor 3)", "reagent no.": 1, "p65 translocation robust z-score": -1.72, "nuclear/cytoplasmic p65 ratio, rep 1": 1.36, "nuclear/cytoplasmic p65 ratio, rep 2": 1.36, "low cell count flag": "enough cells to score", "outcome": "active"}
{"gene": "Ccdc69 (coiled-coil domain containing 69)", "reagent no.": 1, "p65 translocation robust z-score": 0.27, "nuclear/cytoplasmic p65 ratio, rep 1": 1.46, "nuclear/cytoplasmic p65 ratio, rep 2": 2, "low cell count flag": "enough cells to score", "outcome": "inactive"}
{"gene": "Akt1 (Akt serine/threonine kinase 1)", "reagent no.": 1, "p65 translocation robust z-score": 1.28, "nuclear/cytoplasmic p65 ratio, rep 1": 1.83, "nuclear/cytoplasmic p65 ratio, rep 2": 1.55, "low cell count flag": "enough cells to score", "outcome": "inactive"}
{"gene": "Akt1 (Akt serine/threonine kinase 1)", "reagent no.": 1, "p65 translocation robust z-score": 1, "nuclear/cytoplasmic p65 ratio, rep 1": 1.72, "nuclear/cytoplasmic p65 ratio, rep 2": 1.65, "low cell count flag": "enough cells to score", "outcome": "inactive"}
{"gene": "Or12d17 (olfactory receptor family 12 subfamily D member 17)", "reagent no.": 1, "p65 translocation robust z-score": 0.03, "nuclear/cytoplasmic p65 ratio, rep 1": 1.42, "nuclear/cytoplasmic p65 ratio, rep 2": 1.69, "low cell count flag": "enough cells to score", "outcome": "inactive"}
{"gene": "Bltp1 (bridge-like lipid transfer protein family member 1)", "reagent no.": 1, "p65 translocation robust z-score": 0.21, "nuclear/cytoplasmic p65 ratio, rep 1": 1.59, "nuclear/cytoplasmic p65 ratio, rep 2": 1.59, "low cell count flag": "enough cells to score", "outcome": "inactive"}
{"gene": "Bltp1 (bridge-like lipid transfer protein family member 1)", "reagent no.": 2, "p65 translocation robust z-score": 0.37, "nuclear/cytoplasmic p65 ratio, rep 1": 1.28, "nuclear/cytoplasmic p65 ratio, rep 2": 1.38, "low cell count flag": "enough cells to score", "outcome": "inactive"}
{"gene": "Jph3 (junctophilin 3)", "reagent no.": 1, "p65 translocation robust z-score": 2.44, "nuclear/cytoplasmic p65 ratio, rep 1": 1.71, "nuclear/cytoplasmic p65 ratio, rep 2": 1.78, "low cell count flag": "enough cells to score", "outcome": "inactive"}
{"gene": "Dtx1 (deltex 1, E3 ubiquitin ligase)", "reagent no.": 1, "p65 translocation robust z-score": -0.81, "nuclear/cytoplasmic p65 ratio, rep 1": 1.4, "nuclear/cytoplasmic p65 ratio, rep 2": 1.25, "low cell count flag": "enough cells to score", "outcome": "inactive"}
{"gene": "Sik1 (salt inducible kinase 1)", "reagent no.": 1, "p65 translocation robust z-score": -0.38, "nuclear/cytoplasmic p65 ratio, rep 1": 1.56, "nuclear/cytoplasmic p65 ratio, rep 2": 1.38, "low cell count flag": "enough cells to score", "outcome": "inactive"}

Entries listed above marked active, once more:
{"gene": "Wdtc1 (WD and tetratricopeptide repeats 1)", "reagent no.": 1, "p65 translocation robust z-score": -1.68, "nuclear/cytoplasmic p65 ratio, rep 1": 1.48, "nuclear/cytoplasmic p65 ratio, rep 2": 1.32, "low cell count flag": "enough cells to score", "outcome": "active"}
{"gene": "Atf3 (activating transcription factor 3)", "reagent no.": 1, "p65 translocation robust z-score": -1.72, "nuclear/cytoplasmic p65 ratio, rep 1": 1.36, "nuclear/cytoplasmic p65 ratio, rep 2": 1.36, "low cell count flag": "enough cells to score", "outcome": "active"}
